The assay deals with AtPR5K2 fused to the N-terminal fragment of Venus (AtPR5K2^VN) (Arabidopsis thaliana) (UniProt F4JQT1). Briefly: split reporter; BiFC with split Venus (VN on PR5K2, VC on the partner) in Agrobacterium-coinfiltrated N. benthamiana leaves with p19; confocal microscopy of epidermal cells after 48 h at 25°C; also done in the presence or absence of 10 µM exogenous ABA (signals weaker with ABA).

The chains behind the UniProt entries cited, without tags or fusion partners. Where a name states a change or a piece, a line headed by the entry shows the natural chain unless it says otherwise.
UniProt F4JQT1: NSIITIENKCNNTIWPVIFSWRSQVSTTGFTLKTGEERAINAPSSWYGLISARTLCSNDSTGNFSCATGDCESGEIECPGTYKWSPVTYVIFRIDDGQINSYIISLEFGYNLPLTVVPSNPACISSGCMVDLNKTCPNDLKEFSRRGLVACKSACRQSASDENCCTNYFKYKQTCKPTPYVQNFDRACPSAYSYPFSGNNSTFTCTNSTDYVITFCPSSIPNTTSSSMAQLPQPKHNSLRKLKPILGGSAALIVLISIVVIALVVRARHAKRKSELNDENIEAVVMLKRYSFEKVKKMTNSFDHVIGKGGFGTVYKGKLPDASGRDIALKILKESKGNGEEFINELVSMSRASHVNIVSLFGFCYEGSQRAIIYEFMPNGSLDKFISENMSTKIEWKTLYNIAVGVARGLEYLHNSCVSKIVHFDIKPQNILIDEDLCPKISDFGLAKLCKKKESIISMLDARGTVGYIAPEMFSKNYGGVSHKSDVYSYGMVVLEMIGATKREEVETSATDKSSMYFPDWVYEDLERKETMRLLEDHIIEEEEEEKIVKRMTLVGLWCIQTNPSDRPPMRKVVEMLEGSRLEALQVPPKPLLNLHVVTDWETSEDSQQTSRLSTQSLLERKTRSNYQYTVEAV
UniProt O04719: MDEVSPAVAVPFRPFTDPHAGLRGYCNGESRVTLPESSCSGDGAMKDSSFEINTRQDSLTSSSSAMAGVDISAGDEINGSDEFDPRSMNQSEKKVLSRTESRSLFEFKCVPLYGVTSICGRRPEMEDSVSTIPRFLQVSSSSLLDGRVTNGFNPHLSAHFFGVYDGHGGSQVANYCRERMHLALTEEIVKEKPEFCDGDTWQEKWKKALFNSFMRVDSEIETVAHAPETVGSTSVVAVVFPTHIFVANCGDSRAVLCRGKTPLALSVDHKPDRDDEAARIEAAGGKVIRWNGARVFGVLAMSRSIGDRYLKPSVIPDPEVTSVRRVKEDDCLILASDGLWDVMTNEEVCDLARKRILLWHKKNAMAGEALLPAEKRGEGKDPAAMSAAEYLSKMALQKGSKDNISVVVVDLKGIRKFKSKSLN
UniProt P49597: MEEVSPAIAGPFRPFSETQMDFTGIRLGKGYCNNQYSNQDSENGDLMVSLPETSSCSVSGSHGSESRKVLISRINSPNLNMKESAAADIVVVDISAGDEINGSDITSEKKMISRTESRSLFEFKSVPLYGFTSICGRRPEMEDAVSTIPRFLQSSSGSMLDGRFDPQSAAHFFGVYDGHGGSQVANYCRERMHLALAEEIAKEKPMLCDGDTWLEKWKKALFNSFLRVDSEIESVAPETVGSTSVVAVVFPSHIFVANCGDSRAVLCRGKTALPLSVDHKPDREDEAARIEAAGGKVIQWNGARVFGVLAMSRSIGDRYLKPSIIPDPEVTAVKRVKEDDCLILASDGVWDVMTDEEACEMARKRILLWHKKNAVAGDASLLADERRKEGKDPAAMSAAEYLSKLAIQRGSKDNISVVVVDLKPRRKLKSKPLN

These are yes or no findings as the source states them, for the method shown. Binding seen in cells or lysates may run through a third protein. Binding can be weak; no strength is given.

Results on 2 substances are retold here after article PMC6822995.

As to “ABI2 fused to the C-terminal fragment of Venus (ABI2^VC) (from UniProt O04719 1-423) (enzyme)”, the binding entry was “binds”.

For “ABI1 fused to the C-terminal fragment of Venus (ABI1^VC) (from UniProt P49597 1-434) (enzyme)”, the binding entry is “binds”.
